In paper PMC10874564:
Results are given in words; binding and its absence hold for the method and conditions named. In cells and extracts the contact can be indirect. Some entries that bind do so weakly or less than the wild type.

Sequences of proteins named here, by UniProt entry; tags and fusion partners are left off.
UniProt Q14573: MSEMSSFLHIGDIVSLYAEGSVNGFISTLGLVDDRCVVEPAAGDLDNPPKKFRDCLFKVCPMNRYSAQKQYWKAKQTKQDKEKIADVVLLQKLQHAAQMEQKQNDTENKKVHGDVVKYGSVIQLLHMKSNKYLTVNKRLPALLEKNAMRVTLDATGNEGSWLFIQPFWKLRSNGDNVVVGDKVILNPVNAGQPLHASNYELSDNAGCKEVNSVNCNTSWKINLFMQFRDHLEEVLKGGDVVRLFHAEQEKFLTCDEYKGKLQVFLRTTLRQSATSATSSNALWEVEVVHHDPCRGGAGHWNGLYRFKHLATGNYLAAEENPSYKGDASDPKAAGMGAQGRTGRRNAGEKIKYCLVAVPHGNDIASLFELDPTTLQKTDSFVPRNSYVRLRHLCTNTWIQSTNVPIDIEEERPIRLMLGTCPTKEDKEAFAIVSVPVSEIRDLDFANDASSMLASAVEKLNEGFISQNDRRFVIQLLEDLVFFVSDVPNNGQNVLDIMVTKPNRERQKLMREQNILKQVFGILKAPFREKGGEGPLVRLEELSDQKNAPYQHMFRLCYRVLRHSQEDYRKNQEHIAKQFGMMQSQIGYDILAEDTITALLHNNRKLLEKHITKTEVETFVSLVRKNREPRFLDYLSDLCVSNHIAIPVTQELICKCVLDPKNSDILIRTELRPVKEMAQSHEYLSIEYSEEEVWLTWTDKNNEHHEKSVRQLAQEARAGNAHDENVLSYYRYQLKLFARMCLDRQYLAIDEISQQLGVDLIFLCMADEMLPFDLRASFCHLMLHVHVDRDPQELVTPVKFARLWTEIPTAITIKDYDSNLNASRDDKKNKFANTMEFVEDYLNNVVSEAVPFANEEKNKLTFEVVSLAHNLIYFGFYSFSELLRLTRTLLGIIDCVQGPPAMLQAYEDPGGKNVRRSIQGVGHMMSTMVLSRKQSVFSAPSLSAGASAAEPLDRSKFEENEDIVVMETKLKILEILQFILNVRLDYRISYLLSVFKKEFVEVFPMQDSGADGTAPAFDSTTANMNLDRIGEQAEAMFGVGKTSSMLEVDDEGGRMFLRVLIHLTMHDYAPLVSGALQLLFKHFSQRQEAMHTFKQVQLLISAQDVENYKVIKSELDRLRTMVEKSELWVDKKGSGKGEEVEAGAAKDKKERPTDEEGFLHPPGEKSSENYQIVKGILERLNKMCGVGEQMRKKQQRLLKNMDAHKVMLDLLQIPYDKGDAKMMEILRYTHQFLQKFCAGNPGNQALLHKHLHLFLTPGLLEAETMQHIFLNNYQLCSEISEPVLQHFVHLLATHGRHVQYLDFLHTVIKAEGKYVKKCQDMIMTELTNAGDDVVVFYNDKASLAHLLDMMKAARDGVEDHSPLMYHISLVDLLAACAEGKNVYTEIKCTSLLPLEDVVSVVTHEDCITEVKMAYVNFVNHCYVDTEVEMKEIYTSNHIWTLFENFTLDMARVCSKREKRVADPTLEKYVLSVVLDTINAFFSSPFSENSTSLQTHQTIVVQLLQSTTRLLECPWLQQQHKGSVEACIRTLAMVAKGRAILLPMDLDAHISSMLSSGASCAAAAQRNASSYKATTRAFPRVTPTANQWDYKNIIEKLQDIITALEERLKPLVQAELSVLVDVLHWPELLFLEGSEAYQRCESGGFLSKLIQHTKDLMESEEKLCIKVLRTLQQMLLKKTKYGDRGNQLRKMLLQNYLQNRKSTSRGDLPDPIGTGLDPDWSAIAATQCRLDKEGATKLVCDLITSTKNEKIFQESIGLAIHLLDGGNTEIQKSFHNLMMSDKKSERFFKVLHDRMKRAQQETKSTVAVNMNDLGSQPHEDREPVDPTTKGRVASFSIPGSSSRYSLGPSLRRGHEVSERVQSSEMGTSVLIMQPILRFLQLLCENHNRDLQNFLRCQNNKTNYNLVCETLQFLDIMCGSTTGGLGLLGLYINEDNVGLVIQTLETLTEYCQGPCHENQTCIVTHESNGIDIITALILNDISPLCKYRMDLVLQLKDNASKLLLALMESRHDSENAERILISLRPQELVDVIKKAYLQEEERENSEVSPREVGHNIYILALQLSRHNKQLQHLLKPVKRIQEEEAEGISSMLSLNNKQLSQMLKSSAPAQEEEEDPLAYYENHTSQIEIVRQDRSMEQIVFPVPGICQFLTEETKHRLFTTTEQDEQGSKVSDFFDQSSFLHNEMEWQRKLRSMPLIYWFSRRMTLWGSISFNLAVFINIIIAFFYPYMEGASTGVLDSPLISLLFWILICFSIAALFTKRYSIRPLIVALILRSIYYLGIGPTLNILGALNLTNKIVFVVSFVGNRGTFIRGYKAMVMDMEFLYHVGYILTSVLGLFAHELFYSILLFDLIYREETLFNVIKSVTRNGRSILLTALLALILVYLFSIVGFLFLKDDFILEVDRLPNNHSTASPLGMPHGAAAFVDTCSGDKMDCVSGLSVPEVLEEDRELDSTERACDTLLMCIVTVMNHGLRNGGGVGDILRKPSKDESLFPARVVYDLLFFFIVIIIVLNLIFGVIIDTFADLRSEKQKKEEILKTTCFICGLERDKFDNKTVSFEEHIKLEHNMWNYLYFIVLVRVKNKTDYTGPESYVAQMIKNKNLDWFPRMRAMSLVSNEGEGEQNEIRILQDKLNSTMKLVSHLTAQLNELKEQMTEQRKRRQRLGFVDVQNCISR
UniProt Q9NZM1: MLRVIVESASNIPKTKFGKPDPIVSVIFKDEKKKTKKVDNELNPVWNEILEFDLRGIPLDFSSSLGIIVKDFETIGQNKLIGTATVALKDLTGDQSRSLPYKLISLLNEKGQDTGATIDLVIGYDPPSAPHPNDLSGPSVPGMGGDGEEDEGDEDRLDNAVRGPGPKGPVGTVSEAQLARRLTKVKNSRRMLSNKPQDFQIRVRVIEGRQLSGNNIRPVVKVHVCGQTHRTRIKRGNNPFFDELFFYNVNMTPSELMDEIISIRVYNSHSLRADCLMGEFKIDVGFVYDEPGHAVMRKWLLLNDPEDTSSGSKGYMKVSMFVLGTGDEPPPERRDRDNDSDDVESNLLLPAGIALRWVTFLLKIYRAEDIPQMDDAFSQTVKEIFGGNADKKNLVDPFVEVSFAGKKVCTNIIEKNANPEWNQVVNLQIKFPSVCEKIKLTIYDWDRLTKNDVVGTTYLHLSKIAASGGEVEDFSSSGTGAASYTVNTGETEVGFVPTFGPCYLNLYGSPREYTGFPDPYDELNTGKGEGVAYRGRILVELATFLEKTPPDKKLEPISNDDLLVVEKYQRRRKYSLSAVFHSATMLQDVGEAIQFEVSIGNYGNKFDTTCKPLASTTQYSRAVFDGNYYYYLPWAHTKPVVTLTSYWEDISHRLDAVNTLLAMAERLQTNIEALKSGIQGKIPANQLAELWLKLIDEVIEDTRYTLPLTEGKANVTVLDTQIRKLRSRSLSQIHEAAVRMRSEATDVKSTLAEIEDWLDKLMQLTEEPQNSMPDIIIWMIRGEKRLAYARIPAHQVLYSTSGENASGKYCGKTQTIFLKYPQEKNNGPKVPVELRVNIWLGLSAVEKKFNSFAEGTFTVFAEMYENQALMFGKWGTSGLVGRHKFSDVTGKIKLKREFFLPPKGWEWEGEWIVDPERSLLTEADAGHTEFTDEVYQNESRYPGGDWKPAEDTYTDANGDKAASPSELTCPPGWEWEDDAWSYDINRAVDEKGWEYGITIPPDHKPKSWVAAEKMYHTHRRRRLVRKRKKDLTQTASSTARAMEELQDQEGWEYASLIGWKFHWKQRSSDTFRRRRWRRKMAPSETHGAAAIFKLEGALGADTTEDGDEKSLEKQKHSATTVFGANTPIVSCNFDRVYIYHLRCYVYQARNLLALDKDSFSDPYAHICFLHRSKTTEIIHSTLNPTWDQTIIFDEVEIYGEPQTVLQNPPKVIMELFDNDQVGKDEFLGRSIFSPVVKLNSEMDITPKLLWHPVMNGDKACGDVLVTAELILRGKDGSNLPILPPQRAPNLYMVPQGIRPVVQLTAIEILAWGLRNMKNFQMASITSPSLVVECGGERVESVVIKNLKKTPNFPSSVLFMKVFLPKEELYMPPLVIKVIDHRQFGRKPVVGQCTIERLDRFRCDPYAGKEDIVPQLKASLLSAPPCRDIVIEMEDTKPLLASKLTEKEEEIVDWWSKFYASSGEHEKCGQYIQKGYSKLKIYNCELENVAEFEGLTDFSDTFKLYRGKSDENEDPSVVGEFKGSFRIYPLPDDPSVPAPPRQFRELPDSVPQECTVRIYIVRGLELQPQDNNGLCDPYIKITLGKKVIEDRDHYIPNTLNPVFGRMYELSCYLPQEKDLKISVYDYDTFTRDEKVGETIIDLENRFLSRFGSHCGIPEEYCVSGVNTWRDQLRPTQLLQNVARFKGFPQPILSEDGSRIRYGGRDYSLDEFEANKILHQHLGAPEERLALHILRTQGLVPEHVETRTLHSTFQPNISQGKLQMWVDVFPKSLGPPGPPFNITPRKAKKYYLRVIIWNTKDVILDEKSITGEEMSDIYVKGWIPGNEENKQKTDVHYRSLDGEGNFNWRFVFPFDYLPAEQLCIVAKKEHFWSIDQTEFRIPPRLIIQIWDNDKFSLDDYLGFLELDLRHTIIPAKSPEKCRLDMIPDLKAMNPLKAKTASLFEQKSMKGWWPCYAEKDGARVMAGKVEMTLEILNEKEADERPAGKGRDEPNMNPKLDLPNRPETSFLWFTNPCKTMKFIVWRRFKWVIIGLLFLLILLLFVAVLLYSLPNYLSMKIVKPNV
UniProt P21796: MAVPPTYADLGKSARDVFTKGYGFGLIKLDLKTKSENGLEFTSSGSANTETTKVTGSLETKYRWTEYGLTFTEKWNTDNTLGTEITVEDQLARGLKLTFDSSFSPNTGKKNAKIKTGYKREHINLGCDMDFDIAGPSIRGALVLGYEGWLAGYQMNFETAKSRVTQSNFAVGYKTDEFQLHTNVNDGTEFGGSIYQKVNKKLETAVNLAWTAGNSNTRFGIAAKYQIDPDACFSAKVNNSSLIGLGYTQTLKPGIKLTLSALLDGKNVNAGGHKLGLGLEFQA

How the values were obtained:
[1] = molecular target: inositol 1,4,5-triphosphate receptor 3 (human (endogenous in Panc-1 and MiaPaCa-2)) (UniProt Q14573); assay: co-IP; IP3R3 immunoprecipitated from Panc-1 whole cell lysate (1% NP40, 137 mM NaCl, 20 mM Tris-HCl pH 8, 2 mM EDTA); 5 µg antibody on 500 µg extract overnight, protein A/G magnetic beads, low salt and 450 mM NaCl washes with 0.1% SDS; isotype IgG control; myoferlin by western blot
[2] = molecular target: inositol 1,4,5-triphosphate receptor 3 (human (endogenous in Panc-1 and MiaPaCa-2)) (UniProt Q14573); assay: co-IP; IP3R3 immunoprecipitated from MiaPaCa-2 lysate (1% NP40, 137 mM NaCl, 20 mM Tris-HCl pH 8, 2 mM EDTA); 5 µg antibody on 500 µg extract overnight, protein A/G magnetic beads, low salt and 450 mM NaCl washes with 0.1% SDS; isotype IgG control; myoferlin by western blot
[3] = molecular target: inositol 1,4,5-triphosphate receptor 3 (human (endogenous in Panc-1 and MiaPaCa-2)) (UniProt Q14573); assay: proximity ligation; Duolink PLA on fixed Panc-1 and MiaPaCa-2 cells, endogenous proteins, primary antibodies 1:75 or 1:100; red signal if less than 40 nm separate both proteins; also done after myoferlin siRNA

Substance: myoferlin (from UniProt Q9NZM1 1-2061)
- binding [1]: binds
- binding [2]: binds weakly
- binding [3]: binds

Substance: voltage-dependent anion channel 1 (from UniProt P21796 1-283)
- binding [3]: binds
